These are yes or no findings as the source states them, for the method shown. In cells and extracts the contact can be indirect. A yes stands for co-enrichment or nearness to the bait. Other partners may have been found. Sequences can lack the tags named with a protein.
T1: SFB-tagged WWOX (WW domain-containing oxidoreductase) (human) (UniProt Q9NZC7)
T1 sequence: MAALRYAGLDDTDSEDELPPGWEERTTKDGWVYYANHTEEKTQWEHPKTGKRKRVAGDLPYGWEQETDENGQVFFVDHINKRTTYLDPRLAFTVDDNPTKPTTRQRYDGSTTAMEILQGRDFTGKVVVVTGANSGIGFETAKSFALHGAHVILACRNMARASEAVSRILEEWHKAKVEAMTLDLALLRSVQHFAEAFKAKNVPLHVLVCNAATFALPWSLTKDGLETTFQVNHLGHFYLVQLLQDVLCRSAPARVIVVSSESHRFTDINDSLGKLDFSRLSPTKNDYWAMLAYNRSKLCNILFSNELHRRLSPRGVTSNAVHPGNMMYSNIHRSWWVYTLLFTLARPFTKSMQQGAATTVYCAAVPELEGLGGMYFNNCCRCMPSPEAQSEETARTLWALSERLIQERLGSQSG

B1: ADH7A1 (protein, UniProt P49419 27-539)
chain: AFMSTLLINQPQYAWLKELGLREENEGVYNGSWGGRGEVITTYCPANNEPIARVRQASVADYEETVKKAREAWKIWADIPAPKRGEIVRQIGDALREKIQVLGSLVSLEMGKILVEGVGEVQEYVDICDYAVGLSRMIGGPILPSERSGHALIEQWNPVGLVGIITAFNFPVAVYGWNNAIAMICGNVCLWKGAPTTSLISVAVTKIIAKVLEDNKLPGAICSLTCGGADIGTAMAKDERVNLLSFTGSTQVGKQVGLMVQERFGRSLLELGGNNAIIAFEDADLSLVVPSALFAAVGTAGQRCTTARRLFIHESIHDEVVNRLKKAYAQIRVGNPWDPNVLYGPLHTKQAVSMFLGAVEEAKKEGGTVVYGGKVMDRPGNYVEPTIVTGLGHDASIAHTETFAPILYVFKFKNEEEVFAWNNEVKQGLSSSIFTKDLGRIFRWLGPKGSDCGIVNVNIPTSGAEIGGAFGGEKHTGGGRESGSDAWKQYMRRSTCTINYSKDLPLAQGIKFQ
B2: aldehyde dehydrogenase 18 family member A1 (protein, UniProt P54886 1-795)
chain: MLSQVYRCGFQPFNQHLLPWVKCTTVFRSHCIQPSVIRHVRSWSNIPFITVPLSRTHGKSFAHRSELKHAKRIVVKLGSAVVTRGDECGLALGRLASIVEQVSVLQNQGREMMLVTSGAVAFGKQRLRHEILLSQSVRQALHSGQNQLKEMAIPVLEARACAAAGQSGLMALYEAMFTQYSICAAQILVTNLDFHDEQKRRNLNGTLHELLRMNIVPIVNTNDAVVPPAEPNSDLQGVNVISVKDNDSLAARLAVEMKTDLLIVLSDVEGLFDSPPGSDDAKLIDIFYPGDQQSVTFGTKSRVGMGGMEAKVKAALWALQGGTSVVIANGTHPKVSGHVITDIVEGKKVGTFFSEVKPAGPTVEQQGEMARSGGRMLATLEPEQRAEIIHHLADLLTDQRDEILLANKKDLEEAEGRLAAPLLKRLSLSTSKLNSLAIGLRQIAASSQDSVGRVLRRTRIAKNLELEQVTVPIGVLLVIFESRPDCLPQVAALAIASGNGLLLKGGKEAAHSNRILHLLTQEALSIHGVKEAVQLVNTREEVEDLCRLDKMIDLIIPRGSSQLVRDIQKAAKGIPVMGHSEGICHMYVDSEASVDKVTRLVRDSKCEYPAACNALETLLIHRDLLRTPLFDQIIDMLRVEQVKIHAGPKFASYLTFSPSEVKSLRTEYGDLELCIEVVDNVQDAIDHIHKYGSSHTDVIVTEDENTAEFFLQHVDSACVFWNASTRFSDGYRFGLGAEVGISTSRIHARGPVGLEGLLTTKWLLRGKDHVVSDFSEHGSLKYLHENLPIPQRNTN
B3: ALDH1B1 (protein, UniProt P30837 18-517)
chain: RYSSAAALPSPILNPDIPYNQLFINNEWQDAVSKKTFPTVNPTTGEVIGHVAEGDRADVDRAVKAAREAFRLGSPWRRMDASERGRLLNRLADLVERDRVYLASLETLDNGKPFQESYALDLDEVIKVYRYFAGWADKWHGKTIPMDGQHFCFTRHEPVGVCGQIIPWNFPLVMQGWKLAPALATGNTVVMKVAEQTPLSALYLASLIKEAGFPPGVVNIITGYGPTAGAAIAQHVDVDKVAFTGSTEVGHLIQKAAGDSNLKRVTLELGGKSPSIVLADADMEHAVEQCHEALFFNMGQCCCAGSRTFVEESIYNEFLERTVEKAKQRKVGNPFELDTQQGPQVDKEQFERVLGYIQLGQKEGAKLLCGGERFGERGFFIKPTVFGGVQDDMRIAKEEIFGPVQPLFKFKKIEEVVERANNTRYGLAAAVFTRDLDKAMYFTQALQAGTVWVNTYNIVTCHTPFGGFKESGNGRELGEDGLKAYTEVKTVTIKVPQKNS

Biological target: T1, SFB-tagged WWOX (WW domain-containing oxidoreductase) (human)
Experiment: affinity purification with mass spectrometry; tandem affinity purification from lysate (NETN buffer) of HEK293T cells stably expressing C-terminally SFB-tagged WWOX: streptavidin beads, elution with 2 mg/ml biotin, then S protein beads; LC-MS/MS; two replicates; hits filtered by MUSE interaction score and CRAPome frequency

| binding | Binder |
| --- | --- |
| binds | B1 |
| binds | B2 |
| binds | B3 |
